The results in this text go back to PMC12431657, “Discovery and mechanistic insights of dibenzoylmethane as a broad spectrum inhibitor of coronavirus” (PLOS Pathogens, 2025).

For the test, the system named is HCoV-229E. On the set-up: species or system Huh-7; HTS, protection from HCoV-229E induced cell death, luminescent cell viability (CellCounting-Lite 2.0), inhibition rate. Particulars: 24 h post infection, 1 h compound pre-incubation, 10 µM, inhibitor.

Where a name gives a salt, the structure may show the parent alone. Read-outs that look alike come from different tables or passages of the source. In all, about 3,300 compounds went through this assay and about 95 (3%) showed an effect of 50% or more. The list shows a part of the results.

As for `CN[C@@H]1[C@@H](O[C@H]2O[C@H](CO)[C@@H](N)[C@H](O)[C@H]2O)O[C@H]2C[C@@H](N)[C@@H](O[C@H]3[C@H](O)[C@@H](O)[C@H](N)C[C@@H]3N)O[C@@H]2[C@@H]1O` [Apramycin (sulfate)], the “229E Inhibition rate” value was 10.5%.
On the same count and under the same terms, with `CCCCC/C=C/C=C/C=O` [trans,trans-2,4-Decadienal] the figure was 30.7%; with `O=C(O)c1c(O)cc(O)cc1O` [2,4,6-Trihydroxybenzoic acid], 9.3%.
`O=C(OC[C@H]1O[C@@H](OC(=O)c2cc(O)c(O)c(O)c2)[C@H](OC(=O)c2cc(O)c(O)c(O)c2)[C@@H](OC(=O)c2cc(O)c(O)c(O)c2)[C@@H]1OC(=O)c1cc(O)c(O)c(O)c1)c1cc(O)c(O)c(O)c1` [Pentagalloylglucose]: the “229E Inhibition rate” value was found to be 6.3%.
For `CC(C)=CCC1=C(O)C(=O)c2ccccc2C1=O` [Lapachol], the “229E Inhibition rate” value is recorded as 54.4%.
For the compound `Cc1c(O)c(C)c2c(c1O)C(=O)C[C@@H](c1ccc(O)cc1)O2` [Farrerol], the “229E Inhibition rate” value was determined as 0%.
As for `CC(=O)O[C@@H]1[C@H]2[C@H]3C[C@H]4C5=Nc6ccccc6[C@]51C[C@@H]2N4[C@H](C)C3C=O` (some centres unmarked) [Perakine], the “229E Inhibition rate” value turned out to be 5.1%.
Turning to `C=C(CC(=O)O)C(=O)O` [Itaconic acid], the “229E Inhibition rate” value stood at 11.7%.
Turning to `COc1cc2c(cc1O)CCN1Cc3c(ccc(OC)c3OC)C[C@@H]21` [Corypalmine], the “229E Inhibition rate” value is 8.4%.
Regarding `O=C(CO)[C@@H](O)[C@H](O)[C@H](O)CO` [Fructose], the “229E Inhibition rate” value (229E Inhibition rate, 24 h) is recorded as 8%.
As for `C=C1C(=O)O[C@@]23[C@H]1CC[C@@H](C)[C@@H]2CC[C@@]1(C)O[C@@H]31` [Arteannuin B], the “229E Inhibition rate” value turned out to be 0%.
`CN(C)CCc1ccc(O)cc1` [Hordenine]: the “229E Inhibition rate” value is recorded as 25.2%.
For `O=c1cc(-c2ccccc2)oc2ccccc12` [Flavone], the “229E Inhibition rate” value was 48.9%.
On the same count and under the same terms, with `COc1cc(O)c2c(=O)c(OC)c(-c3ccc(OC)c(OC)c3)oc2c1` [Retusin] the figure was 27.1%; with `O=c1ccn([C@@H]2O[C@H](COP(=O)(O)OP(=O)(O)O)[C@@H](O)[C@H]2O)c(=O)[nH]1` [Uridine-5'-diphosphate disodium salt], 11.3%; with `CC1(C)CC[C@]2(C(=O)O)CC[C@]3(C)C(=CC[C@@H]4[C@@]5(C)C[C@@H](O)[C@H](O)[C@@](C)(CO)[C@@H]5CC[C@]43C)[C@@H]2[C@@H]1O` [Arjungenin], 25.1%.
Turning to `Nc1ncnc2c1ncn2[C@@H]1O[C@H](COP(=O)(O)OP(=O)(O)OP(=O)(O)O)[C@@H](O)[C@H]1O` [ATP (disodium trihydrate)], where the note is “229E Inhibition rate, 24 h”, the “229E Inhibition rate” value is on record as 8.4%.
As for `CC(C(O)c1ccc(O)cc1)N1CCC(Cc2ccccc2)CC1` (centres unmarked) [Ifenprodil (tartrate)], the “229E Inhibition rate” value came to 39.7%.
Consider `CC(=O)c1c(C)cc2cccc(O)c2c1O` [Nepodin], for which the “229E Inhibition rate” value was determined as 10.6%.
In the case of `C[C@@H]1C/C=C/C=C/C=C/C=C/[C@H](O[C@@H]2O[C@H](C)[C@@H](O)[C@H](N)[C@@H]2O)C[C@@H]2O[C@](O)(C[C@@H](O)C[C@H]3O[C@@H]3/C=C/C(=O)O1)C[C@H](O)[C@H]2C(=O)O` [Natamycin], the “229E Inhibition rate” value is 32.1%.
For `CC(C)(O)[C@@H]1CC[C@](C)([C@H]2[C@@H](O)C[C@@]3(C)[C@@H]4C[C@H](O)[C@H]5C(C)(C)[C@@H](O)CC[C@@]56C[C@@]46CC[C@]23C)O1` [Cycloastragenol], the “229E Inhibition rate” value is on record as 8.6%.
In the case of `CC(C)=CCc1c(O)cc(O)c2c(=O)cc(-c3ccc(O)cc3)oc12` [Licoflavone C], the “229E Inhibition rate” value amounted to 28.1%.
Same read-out and setting: for `COc1cc(CNC(=O)CCCC/C=C/C(C)C)ccc1O` [Capsaicin] the value was 13.5%.
For the compound `COc1c(/C=C/C(=O)c2ccc(O)cc2)ccc(O)c1CC=C(C)C` [Licochalcone C], the “229E Inhibition rate” value was found to be 5%.
For the compound `CC=C1[C@@H]2C=C(C)C[C@@]1(N)c1ccc(=O)[nH]c1C2` (racemic) [(±)-Huperzine A], the “229E Inhibition rate” value came out at 23%.
With `CC(O)(CCO)CC(=O)O` (centres unmarked) [Mevalonic acid (lithium salt)], the “229E Inhibition rate” value stood at 0%.
As to `O=C(O)[C@@H]1[C@H]2C[C@H]3c4[nH]c5ccccc5c4CCN3C[C@@H]2CC[C@@H]1O` [Yohimbic acid], the “229E Inhibition rate” value was found to be 7.6%.
On to `C=C[C@](C)(O)CC[C@@H]1[C@@]2(C)CCCC(C)(C)[C@@H]2CC[C@@]1(C)O` [Sclareol], for which the “229E Inhibition rate” value is reported as 19.3%.
With `O=c1cc(-c2ccc(O)c(O)c2)oc2cc(O[C@@H]3O[C@H](CO)[C@@H](O)[C@H](O)[C@H]3O)c(O)c(O)c12` [6-Hydroxyluteolin 7-glucoside], the “229E Inhibition rate” value came to 5.1%.
On to `O=C(O)/C=C/c1ccc2c(c1)OCO2` [3,4-Methylenedioxycinnamic acid], for which the “229E Inhibition rate” value (229E Inhibition rate, 24 h) was determined as 15.4%.
`COc1ccc(-c2cc(=O)c3c(O)c(OC)c(O)cc3o2)cc1OC` [Eupatilin]: the “229E Inhibition rate” value came out at 16.9%.
For the compound `COc1cc(C[C@@H](CO[C@@H]2O[C@H](CO)[C@@H](O)[C@H](O)[C@H]2O)[C@H](CO[C@@H]2O[C@H](CO)[C@@H](O)[C@H](O)[C@H]2O)Cc2ccc(O)c(OC)c2)ccc1O` [(R,R)-Secoisolariciresinol diglucoside], where the note is “229E Inhibition rate, 24 h”, the “229E Inhibition rate” value turned out to be 12.4%.
Consider `O=C(/C=C/c1ccc(O)c(O)c1)O[C@H](Cc1ccc(O)c(O)c1)C(=O)O` [Rosmarinic acid], for which the “229E Inhibition rate” value is given as 19.1%.
On the same count and under the same terms, with `CC(=O)O[C@H]1[C@H](O[C@H]2CC[C@]34C[C@]35CC[C@]3(C)[C@@H]([C@@]6(C)CC[C@@H](C(C)(C)O)O6)[C@@H](O)C[C@@]3(C)[C@@H]5C[C@H](O[C@@H]3O[C@H](CO)[C@@H](O)[C@H](O)[C@H]3O)[C@H]4C2(C)C)OC[C@@H](OC(C)=O)[C@@H]1O` [Isoastragaloside I] the figure was 11.2%; with `Cc1cncc(C)n1` [2,6-Dimethylpyrazine], 8.2%; with `C[C@H]1CC[C@@]2(OC1)O[C@H]1C[C@H]3[C@@H]4CC[C@@H]5C[C@@H](O)CC[C@]5(C)[C@H]4CC[C@]3(C)[C@H]1[C@@H]2C` [Sarsasapogenin], 4.4%.
As for `COC(=O)C1=CO[C@@H](O[C@@H]2O[C@H](CO)[C@@H](O)[C@H](O)[C@H]2O)[C@H]2[C@@H]1C=C[C@@]2(O)CO` [Gardenoside], the “229E Inhibition rate” value is on record as 10.6%.
With `C/C=C1\C(=O)C[C@H]2[C@@H]3CCC4=CC(=O)CC[C@]4(C)[C@H]3CC[C@]12C` [(Z)-Guggulsterone], under “229E Inhibition rate, 24 h”, the “229E Inhibition rate” value amounted to 6.7%.
Take `OC/C=C/c1ccccc1` [Cinnamyl Alcohol]: the “229E Inhibition rate” value came out at 46.6%.
Consider `O=C(O)[C@H](O)[C@H](O)[C@@H](O)[C@H](O)[C@H](O)CO` [NSC 42196], for which the “229E Inhibition rate” value is 14.9%.
For the compound `CC(C)=CC[C@H](OC(=O)C=C(C)C)C1=CC(=O)c2c(O)ccc(O)c2C1=O` [β,β-Dimethylacrylalkannin], the “229E Inhibition rate” value is 17.4%.
`COc1cc2c(cc1OC)[C@@H](Cc1ccc(O)c(Oc3cc4c(cc3OC)CCN(C)[C@@H]4Cc3ccc(O)cc3)c1)N(C)CC2` [Liensinine (Diperchlorate)]: under “229E Inhibition rate, 24 h”, the “229E Inhibition rate” value is on record as 57.2%.
Turning to `C/C=C(/C)C(=O)O[C@H]1C(C)=C[C@]23C(=O)[C@@H](C=C(CO)[C@@H](O)[C@]12O)[C@H]1[C@@H](C[C@H]3C)C1(C)C` [Ingenol Mebutate], the “229E Inhibition rate” value was found to be 3.8%.
For `C[C@@]12C[C@@]3(O)O[C@@H](O1)[C@]1(COC(=O)c4ccc(O)cc4)[C@H]3C[C@@]12O[C@@H]1O[C@H](CO)[C@@H](O)[C@H](O)[C@H]1O` [Oxypaeoniflorin], the “229E Inhibition rate” value turned out to be 40.9%.
In the case of `C[C@H](CC[C@@H](O)C(C)(C)O)[C@H]1CC[C@@]2(C)[C@@H]3CC=C4[C@@H](CC[C@H](O)C4(C)C)[C@]3(C)[C@H](O)C[C@]12C` [Mogrol], the “229E Inhibition rate” value stood at 3.6%.
With `C[C@H](CC[C@@H](O[C@@H]1O[C@H](CO)[C@@H](O)[C@H](O)[C@H]1O[C@@H]1O[C@H](CO)[C@@H](O)[C@H](O)[C@H]1O)C(C)(C)O)[C@H]1CC[C@@]2(C)[C@@H]3CC=C4[C@@H](CC[C@H](O)C4(C)C)[C@]3(C)[C@H](O)C[C@]12C` [Mogroside II-A], the “229E Inhibition rate” value came to 10%.
In the case of `N[C@@H](Cc1c[nH]cn1)C(=O)O` [L-Histidine], the “229E Inhibition rate” value (229E Inhibition rate, 24 h) is reported as 10%.
Turning to `CC(C)[C@H](C)[C@@H](O)[C@H](O)[C@@H](C)[C@H]1CC[C@H]2[C@@H]3COC(=O)[C@H]4C[C@H](O)[C@H](O)C[C@]4(C)[C@H]3CC[C@]12C` [Brassinolide], the “229E Inhibition rate” value stood at 13.9%.
For the compound `COc1ccc(-c2cc(=O)c3c(O)c(OC)c(OC)cc3o2)cc1` [Salvigenin], the “229E Inhibition rate” value is 21.5%.
Take `CC1(C)[C@@H](O[C@H]2O[C@H](C(=O)O)[C@@H](O)[C@H](O)[C@H]2O[C@@H]2O[C@H](C(=O)O)[C@@H](O)[C@H](O)[C@H]2O)CC[C@]2(C)[C@H]3C(=O)C=C4[C@@H]5C[C@@](C)(C(=O)O)CC[C@]5(C)CC[C@@]4(C)[C@]3(C)CC[C@@H]12` [Ammonium glycyrrhizinate]: the “229E Inhibition rate” value (229E Inhibition rate, 24 h) stood at 1.4%.
Regarding `COc1cc2c(cc1OC)C1=Cc3ccc(OC)c(OC)c3CN1CC2` [Dihydropalmatine], the “229E Inhibition rate” value is reported as 8.1%.
On to `O=C(O)CO` [Glycolic acid], for which the “229E Inhibition rate” value turned out to be 18.6%.
With `O=c1c(O[C@@H]2O[C@H](CO)[C@@H](O)[C@H](O)[C@H]2O)c(-c2ccc(O)c(O)c2)oc2cc(O)cc(O)c12` [Isoquercetin], the “229E Inhibition rate” value (229E Inhibition rate, 24 h) is 7.5%.
`COc1ccc(C(C)=O)c(O)c1O` [2,3-Dihydroxy-4-methoxyacetophenone]: the “229E Inhibition rate” value came out at 5.9%.
With `CCC1=C[C@@H]2CN3CCc4c([nH]c5ccccc45)[C@@](C(=O)OC)(C2)[C@@H]13` [Catharanthine], the “229E Inhibition rate” value came out at 54.2%.
Still for that read-out and setting: for `O[C@H]1[C@H](O)[C@@H](O)CN2CC[C@H](O)[C@H]12` [Castanospermine] the value was 47.4%.
